Experimental data: PMC11277097, “MRAP2a Binds and Modulates Activity and Localisation of Prokineticin Receptor 1 in Zebrafish” (International Journal of Molecular Sciences, 2024)
Results are given in words; binding and its absence hold for the method and conditions named. Binding can be weak; no strength is given. Sequences can lack the tags named with a protein. For some assays here: Binding seen in cells or lysates may run through a third protein.

Amino acid sequences for entries named in this document (tags omitted). A change or cut given only in a name is not applied to a line headed by its entry.
UniProt D3TZW3: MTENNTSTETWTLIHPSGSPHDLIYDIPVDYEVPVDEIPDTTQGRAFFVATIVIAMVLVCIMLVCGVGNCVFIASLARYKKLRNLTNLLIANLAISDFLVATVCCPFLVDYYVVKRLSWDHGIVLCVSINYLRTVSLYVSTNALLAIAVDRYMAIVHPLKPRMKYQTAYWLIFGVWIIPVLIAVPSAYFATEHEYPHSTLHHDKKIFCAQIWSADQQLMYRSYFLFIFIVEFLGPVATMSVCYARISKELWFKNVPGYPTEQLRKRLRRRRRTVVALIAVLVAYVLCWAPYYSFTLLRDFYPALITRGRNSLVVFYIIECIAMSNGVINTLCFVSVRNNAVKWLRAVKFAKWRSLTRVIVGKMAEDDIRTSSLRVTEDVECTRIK

B1: His-tagged zebrafish MRAP2a (zMRAP2a-His) (protein, UniProt F8W4H9 1-217)
chain: MPRFQLSNSTSVPNHNYEWSYEYYDDEEPVSFEGLKAHRYSIVIGFWVGLAVFVIFMFFVLTLLTKTGAPHPEAAEPYEKRMRLTSCADGLGRQRETDGRTGLSRPLLEESRSLFHCYINEEEREGGRAATDAGALTHGRSGIGNSRGQVEEVGLVVQNMVLESRAEREAALLAHFNIPNFVNSELNSALGDEDLLLGDPPIIMEEARPRCTHHIID
B2: His-tagged human MRAP2 (hMRAP2-His) (protein, UniProt Q96G30 1-205)
chain: MSAQRLISNRTSQQSASNSDYTWEYEYYEIGPVSFEGLKAHKYSIVIGFWVGLAVFVIFMFFVLTLLTKTGAPHQDNAESSEKRFRMNSFVSDFGRPLEPDKVFSRQGNEESRSLFHCYINEVERLDRAKACHQTTALDSDVQLQEAIRSSGQPEEELNRLMKFDIPNFVNTDQNYFGEDDLLISEPPIVLETKPLSQTSHKDLD
B3: C-terminal domain of zebrafish MRAP2a, His-tagged (zCT-MRAP2a) (domain or fragment, UniProt F8W4H9 73-217, looked up)
chain: EAAEPYEKRMRLTSCADGLGRQRETDGRTGLSRPLLEESRSLFHCYINEEEREGGRAATDAGALTHGRSGIGNSRGQVEEVGLVVQNMVLESRAEREAALLAHFNIPNFVNSELNSALGDEDLLLGDPPIIMEEARPRCTHHIID
notes: zebrafish MRAP2a, C-terminal domain, the region from residue 73 to residue 217 encoded by the third exon; cloned by PCR from plasmid XM_021473026.1 into pet28; also called zCT-MRAP2a domain; pet 28zCT-MRAP2; source: E. coli, purified (His-tagged protein purification kit)

Experiments:
[1] = target: FLAG-tagged zebrafish prokineticin receptor 1 (zPKR1-FLAG) (zebrafish) (UniProt D3TZW3); assay: cross-linking; CHO cells transiently co-transfected, 24 h later incubated at room temperature with 2 mM dithiobis(succinimidyl propionate); SDS-PAGE, blot with anti-His
[2] = target: FLAG-tagged zebrafish prokineticin receptor 1 (zPKR1-FLAG) (zebrafish) (UniProt D3TZW3); assay: co-IP; solubilised membranes of CHO cells co-expressing zPKR1-FLAG and His-tagged MRAP2; precipitated with FLAG-binding resin; blot with anti-His and anti-FLAG
[3] = target: zPKR1-NT-GST fusion protein (N-terminal region of zebrafish PKR1 fused with GST) (zebrafish); assay: pull-down; GST fusion protein on glutathione-Sepharose beads, buffer A (PBS, 1% Nonidet P 40, 1 mM EDTA), incubated 4 h with the purified His-tagged CT domain; eluted with GSH; blot with anti-His; both purified

Row | Binder | binding [1] | binding [2] | binding [3]
1 | B1 | binds | binds | –
2 | B2 | binds | binds | –
3 | B3 | – | – | binds
